Results published in paper PMC6926464, “Gating control of the cardiac sodium channel Nav1.5 by its β3-subunit involves distinct roles for a transmembrane glutamic acid and the extracellular domain” (The Journal of Biological Chemistry, 2019).
Results are given in words; binding and its absence hold for the method and conditions named. In cells and extracts the contact can be indirect. Some entries that bind do so weakly or less than the wild type. Where a sequence is shown, tags or fusion partners need not be part of it.

Biological target: Nav1.5 α-subunit with a C-terminal HA tag (human) (UniProt Q14524)
Assay: co-IP; HEK293F cells co-transfected with Nav1.5 HA and EGFP-tagged β3 or EGFP alone; lysis in 50 mM Tris, 150 mM NaCl, 1% Triton X-100; IP with monoclonal anti-HA and protein G-agarose at 4 °C; bound and flow-through fractions blotted for HA and EGFP

B1: full-length WT β3-subunit with C-terminal EGFP tag (natural protein, human, UniProt Q9NY72 23-215, looked up)
chain: FPVCVEVPSETEAVQGNPMKLRCISCMKREEVEATTVVEWFYRPEGGKDFLIYEYRNGHQEVESPFQGRLQWNGSKDLQDVSITVLNVTLNDSGLYTCNVSREFEFEAHRPFVKTTRLIPLRVTEEAGEDFTSVVSEIMMYILLVFLTLWLLIEMIYCYRKVSKAEEAAQENASDYLAIPSENKENSAVPVEE
notes: voltage-gated sodium channel auxiliary β3-subunit, full-length; glycosylated (multiple bands on SDS-PAGE); also called WT-β3-EGFP; FL β3-EGFP; source: HEK293F, transfected (pcDNA3 WT-β3-EGFP), in lysate; not shown: EGFP, C-terminal, kept
binding: binds
